Measurements reported in PubChem BioAssay AID1671190 (National Center for Advancing Translational Sciences (NCATS), 2021).
Screen size: about 580,000 compounds; about 6,100 (1.1%) were called active. The shares of active, inactive and inconclusive entries below differ from those in the screen. Calls come from the whole dose curve; as a rule, active = well fitted inhibition curve with a large enough effect; inconclusive = small, poorly fitted or top-dose-only effect, or another doubt; inactive = no such curve, though single readings can be large or run the other way. A potency beside an inconclusive call is a rough fit, not a confirmed value.
% is set by controls: 0 for no effect and ±100 for the full control effect; potency is the fitted concentration of half-maximal effect.

By UniProt entry, the sequences of proteins in these tests, tags left out. Where a name states a change or a piece, a line headed by the entry shows the natural chain unless it says otherwise.
UniProt P18054: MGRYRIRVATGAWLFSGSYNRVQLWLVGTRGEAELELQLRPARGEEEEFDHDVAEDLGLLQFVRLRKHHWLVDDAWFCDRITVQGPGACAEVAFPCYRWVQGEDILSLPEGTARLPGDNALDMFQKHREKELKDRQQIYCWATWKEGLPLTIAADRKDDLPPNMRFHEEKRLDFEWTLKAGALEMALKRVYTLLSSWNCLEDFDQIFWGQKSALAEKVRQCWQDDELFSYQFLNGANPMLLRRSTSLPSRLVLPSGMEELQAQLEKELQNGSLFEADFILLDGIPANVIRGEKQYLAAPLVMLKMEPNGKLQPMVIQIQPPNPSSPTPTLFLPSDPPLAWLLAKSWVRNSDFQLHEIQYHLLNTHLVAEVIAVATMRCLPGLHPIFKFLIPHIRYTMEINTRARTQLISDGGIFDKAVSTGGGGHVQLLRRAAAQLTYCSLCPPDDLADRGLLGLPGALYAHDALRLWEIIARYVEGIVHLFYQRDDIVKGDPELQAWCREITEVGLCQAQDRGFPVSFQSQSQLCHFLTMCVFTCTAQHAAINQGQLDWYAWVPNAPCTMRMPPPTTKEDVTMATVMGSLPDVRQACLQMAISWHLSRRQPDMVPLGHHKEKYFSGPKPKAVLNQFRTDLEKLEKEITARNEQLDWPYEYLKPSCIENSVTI

What follows are compounds tested against Polyunsaturated fatty acid lipoxygenase ALOX12 (Homo sapiens) (UniProt P18054) (assay: Primary qHTS assay for inhibitors of human arachidonate 12S-lipoxygenase (ALOX12): Round 2). Settings: purified 12hLO, xylenol orange hydroperoxide absorbance; activity change, negative = inhibition: at 108 µM (top of the series) unless noted.
In short: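 Purified human 12hLO at 150 nM in 25 mM Hepes, 0.01% Triton X-100, pH 7.0, preincubated 15 min at room temperature with compound. Reaction started with 40 uM arachidonic acid, 30 min at room temperature. Hydroperoxide measured by Fe-xylenol orange, 573/405 nm absorbance ratio.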
In the case of COc1ccc(-n2cc(-c3ccccc3)[nH]c2=S)cc1, the Potency is reported as inconclusive: 22.4 µM [inhibitor, full curve].
CC(C)C[C@H](NC(=O)[C@@H]1Cc2ccccc2CN1C(=O)OC(C)(C)C)C(=O)NCC1CCC(C(=O)O)CC1 (some centres undefined) was tested, and the Potency was inconclusive: 12.6 µM [inhibitor, partial curve, poor fit].
With O=C(C1CCCC1)N1CC2(CCN(Cc3ccccn3)CC2)Cc2ccccc21 the activity change, negative = inhibition was inactive: -0.023% [at 12.5 µM].
For COC(=O)c1ccc(NC(=O)C(=O)NCCc2csc(-c3ccc(F)cc3)n2)cc1, the Potency was inconclusive: 112 µM [inhibitor, partial curve, poor fit].
In the case of O=C1c2ccccc2-c2cccc(C(=O)N3CCCCCC3)c21, the Potency is reported as inconclusive: 1.78 µM [inhibitor, full curve, poor fit].
O=C(NCc1ccccn1)c1nn(-c2ccccc2)c(=O)c2ccccc12 was tested, and the Potency was inconclusive: 14.1 µM [inhibitor, partial curve, poor fit].
For COc1ccc(Cl)cc1CO/N=C/c1cccc(OC)c1OC, the “activity change, negative = inhibition” value was inactive: 3.83%.
O=C(CSc1ncccc1C(=O)Oc1ccccc1Cl)Nc1ccc(C(F)(F)F)cc1Cl was tested, and the “activity change, negative = inhibition” value was inactive: -22.2%.
C/C(CCC(C)C)=N\Nc1cc(C)c2ccccc2n1 was tested, and the “activity change, negative = inhibition” value was inactive: 43.5%.
COc1ccc(C2/C(=C(/O)c3ccccc3)C(=O)C(=O)N2CCN2CCOCC2)c(OC)c1 (centres undefined) was tested, and the Potency was inconclusive: 28.2 µM [inhibitor, single point].
With CCC1(c2ccc(F)cc2)NC(=O)N(CC(=O)Nc2ccc(-c3nc4ccc(C)cc4s3)cc2)C1=O (centres undefined) the “activity change, negative = inhibition” value was inactive: -11%.
With COc1ccc(N2CCN(Cc3nc4c(c(=O)[nH]c(=O)n4C)n3Cc3ccccc3C)CC2)cc1 the Potency was inconclusive: 50.1 µM [inhibitor, partial curve, poor fit].
O=C(O)c1ccccc1C(=O)NNc1ccc(F)cc1 was tested, and the Potency was inconclusive: 44.7 µM [inhibitor, partial curve, poor fit].
In the case of COc1ccc(-c2coc3cc(OCC(=O)NCc4ccc(Cl)cc4)ccc3c2=O)cc1OC, the “activity change, negative = inhibition” value is reported as inactive: -0.65%.
Cc1noc(Cc2c(C)nn(-c3ccccc3)c2C)n1 was tested, and the “activity change, negative = inhibition” value was inactive: 21.3%.
O=[N+]([O-])c1ccc(S(=O)Cc2ccccc2)c([N+](=O)[O-])c1 (centres undefined) was tested, and the Potency was inconclusive: 56.2 µM [inhibitor, partial curve, poor fit].
In the case of Cc1nc(NC(=O)C(C)(C)C)sc1[N+](=O)[O-], the Potency is reported as inconclusive: 0.447 µM [inhibitor, full curve, poor fit].
With O=C1CC(c2ccccc2F)c2ncn(-c3ccccc3F)c2N1 (centres undefined) the Potency was inconclusive: 39.8 µM [inhibitor, partial curve, poor fit].
In the case of CCc1ccc(NC(=O)Cn2c(-c3cccc(Cl)c3)nc(C)c(CCO)c2=O)cc1, the Potency is reported as inconclusive: 22.4 µM [inhibitor, full curve, poor fit].
CCCCC(CC)C(=O)Nc1sc2c(c1C#N)CCCC2 (centres undefined) was tested, and the Potency was inconclusive: 15.8 µM [inhibitor, full curve].
With Cc1cccc(NC(=O)CCN2CCN(Cc3cccc4ccccc34)CC2)c1 the Potency was active: 28.2 µM.
O=C1SCCN1N=Cc1ccc([N+](=O)[O-])o1 was tested, and the Potency was inconclusive: 0.891 µM [inhibitor, full curve, poor fit].
With CC(NC(=S)NCCc1ccccc1)C(c1cccs1)N1CCN(Cc2ccccc2)CC1 (centres undefined) the Potency was inconclusive: 35.5 µM [inhibitor, partial curve, poor fit].
With O=C(c1ccccc1Br)N1N=C(c2ccccc2)CC1c1ccccc1F (centres undefined) the Potency was inconclusive: 0.251 µM [inhibitor, full curve, poor fit].
CCCc1cc(NCCCN2CCOCC2)n2c(nc3ccccc32)c1C#N was tested, and the “activity change, negative = inhibition” value was inactive: 449%.
O=C(CSc1nc(-c2ccccc2)ns1)NCC1CCCO1 (centres undefined) was tested, and the “activity change, negative = inhibition” value was inactive: -27.4%.
For CCOC(=O)C1=C(CSc2nc3ccccc3s2)NC(=O)NC1c1ccc(OC)cc1 (centres undefined), the “activity change, negative = inhibition” value was inactive: -6.82%.
For Cc1cc(C)c(C(=O)COC(=O)c2ccc(C=O)cc2)c(C)c1, the “activity change, negative = inhibition” value was inactive: 4.85%.
In the case of COc1cc(F)cc(-c2cnc3[nH]cc(CC(=O)N4CCOCC4)c3c2)c1, the “activity change, negative = inhibition” value is reported as inactive: -5.25% [at 176 µM].
In the case of COc1ccc(C(=O)OCC(=O)N2CCc3ccccc3C2)cc1OC, the “activity change, negative = inhibition” value is reported as inactive: 5.94%.
For Cc1ccc(-n2cccc2/C=C2/NC(=O)N(CC(=O)Nc3cccc(C)c3)C2=O)cc1, the Potency was inconclusive: 100 µM [inhibitor, single point].
For CCOC(=O)c1ccc(C(=O)NNC(=O)C2C3C=CC(C3)C2C(=O)O)cc1 (centres undefined), the “activity change, negative = inhibition” value was inactive: -2.07%.
With COc1ccc2nc3ccccc3[n+]([O-])c2c1 the Potency was inconclusive: 89.1 µM [inhibitor, partial curve, poor fit].
In the case of CCOc1cc(N2CCOCC2)c(OCC)cc1NC(=O)c1cc(C)cc(C)c1, the “activity change, negative = inhibition” value is reported as inactive: 471%.
With COc1ccc(NC(=O)c2ccco2)cc1NC(=O)c1cc(Cl)ccc1OC the Potency was inconclusive: 44.7 µM [inhibitor, partial curve, poor fit].
For CC(C)(C)c1ccc(O)c(N=Cc2cc3c(cc2[N+](=O)[O-])OCO3)c1, the Potency was active: 35.5 µM.
In the case of Cc1c(C2(O)CCCCC2)[nH]c2cc(C(F)(F)F)ccc12, the Potency is reported as inconclusive: 31.6 µM [inhibitor, partial curve, poor fit].
Cc1noc(C)c1COc1cccc(C(=O)OCC(=O)NC(=O)c2ccc(OC(F)F)cc2)c1 was tested, and the Potency was inconclusive: 112 µM [inhibitor, partial curve, poor fit].
For CSc1ccc(-c2nnn(CC(=O)Nc3sc4c(c3C#N)CCC(C(C)(C)C)C4)n2)cc1 (centres undefined), the Potency was inconclusive: 141 µM [inhibitor, partial curve, poor fit].
With CSCCCNC(=S)Nc1ccc(F)c(Cl)c1 the Potency was inconclusive: 44.7 µM [inhibitor, partial curve].
In the case of COC(=O)[C@@]1(Cc2ccc(F)cc2)[C@H]2c3cc(C(=O)N(C)C)n(Cc4ccc(OC(F)(F)F)cc4)c3C[C@H]2CN1C(=O)c1ccccc1, the Potency is reported as inconclusive: 79.4 µM [inhibitor, partial curve, poor fit].
In the case of O=C(NCCc1cccc(Cl)c1)c1ccncc1, the “activity change, negative = inhibition” value is reported as inactive: -2.73%.
In the case of Cc1ccc(NC(=O)c2ccncc2)cc1S(=O)(=O)N(C)C, the “activity change, negative = inhibition” value is reported as inactive: -19.8%.
With COc1ccc(-c2[nH]nc3nc(-c4cc(Br)ccc4OC)cc(C(=O)O)c23)cc1 the Potency was inconclusive: 31.6 µM [inhibitor, partial curve, poor fit].
Cc1ccc2oc(C(=O)N(C)CCOc3ccc(F)cc3)cc(=O)c2c1 was tested, and the “activity change, negative = inhibition” value was inactive: -19.5%.
Cc1ccc(-n2c(-c3ccc(Br)cc3)c[n+]3c2CCc2ccc4cccnc4c2-3)cc1 was tested, and the Potency was inconclusive: 44.7 µM [inhibitor, partial curve, poor fit].
For COc1cc(-c2oc3cc(O)cc(O)c3c(=O)c2O[C@@H]2O[C@H](COC3O[C@@H](C)[C@H](O)[C@@H](O)[C@H]3O)[C@@H](O)[C@H](O)[C@H]2O)ccc1O (some centres undefined), the “activity change, negative = inhibition” value was inactive: -9.77%.
COc1ccc(-c2cc(-c3ccncc3)cn3cncc23)cc1 was tested, and the Potency was inconclusive: 100 µM [inhibitor, partial curve, poor fit].
With COC(=O)c1ccc(C)c(NC(=O)CN(c2cc(C(F)(F)F)ccc2Cl)S(C)(=O)=O)c1 the Potency was inconclusive: 63.1 µM [inhibitor, partial curve, poor fit].
In the case of CCC(=O)Nc1ccc(Cl)c(-c2nc3ccccc3[nH]2)c1, the Potency is reported as inconclusive: 5.01 µM [inhibitor, full curve, poor fit].
With CCCCc1ccc(CC(=O)O)cc1 the Potency was inconclusive: 63.1 µM [inhibitor, partial curve, poor fit].
O=C(Nc1cc(Cl)ccc1F)c1cccc2ccccc12 was tested, and the “activity change, negative = inhibition” value was inactive: -7.6%.
CC(C)C1CN(C(=O)c2ccccc2-c2ncc[nH]2)CCC(=O)N1CC1CC1 (centres undefined) was tested, and the “activity change, negative = inhibition” value was inactive: 12.9%.
In the case of COc1ccccc1CN1CCC(CNC(=O)c2cnn(-c3ccccc3Cl)c2C2CCN(C(=O)OC(C)(C)C)CC2)CC1, the Potency is reported as inconclusive: 56.2 µM [inhibitor, partial curve, poor fit].
For O=C([C@@H]1C[C@H](F)CN1S(=O)(=O)Cc1ccccc1F)N1CCc2ccccc2C1, the Potency was inconclusive: 15.8 µM [inhibitor, partial curve, poor fit].
For CC[C@@]1(C(=O)OC)N[C@H](CN(C)S(=O)(=O)c2ccc(-c3ccccc3)cc2)[C@@H]2C(=O)N(C)C(=O)[C@@H]21, the Potency was inconclusive: 44.7 µM [inhibitor, partial curve, poor fit].
N#Cc1nc(COc2ccc(Cl)cc2)oc1N1CCCC1 was tested, and the Potency was inconclusive: 44.7 µM [inhibitor, partial curve, poor fit].
CC(C)c1ccc(OCC(=O)NOCc2ccccc2)cc1 was tested, and the Potency was inconclusive: 100 µM [inhibitor, single point].
Cc1ccc2[nH]c(C(=O)O)cc2c1 was tested, and the Potency was inconclusive: 100 µM [inhibitor, partial curve, poor fit].
For CN(CC(=O)Nc1n[nH]c(=S)s1)S(=O)(=O)c1cccc2cccnc12, the Potency was inconclusive: 35.5 µM [inhibitor, partial curve, poor fit].
CC(=O)O[C@@H](C[C@@H](C)C1=C2C[C@H](O)C3[C@@]4(C)CCC(=O)C(C)(C)C4CC[C@]3(C)[C@@]2(C)CC1)[C@H]1OC1(C)C (some centres undefined) was tested, and the “activity change, negative = inhibition” value was inactive: 1.96%.
For O=C(CCn1cncn1)N1CCCC(N2CCN(c3cccc(C(F)(F)F)c3)CC2)C1 (centres undefined), the Potency was inconclusive: 56.2 µM [inhibitor, partial curve, poor fit].
For O=C(/C=C/c1ccco1)N(Cc1cccc(Br)c1)C1CCS(=O)(=O)C1 (centres undefined), the Potency was inconclusive: 79.4 µM [inhibitor, partial curve, poor fit].
With COc1cc(-c2nnc3n2C(C)(C)Cc2ccccc2-3)cc(OC)c1OC the Potency was inconclusive: 112 µM [inhibitor, single point].
